Laboratory results published in article doi:10.1101/2020.02.19.956169.
Construct, isoform or probe ends are uncertain for at least one entry. Protein sequences can lack the tags named with them.

Target: T1, BaRecJ (Bacillus alcalophilus) (UniProt A0A094WFF5)
T1 sequence (looked up, limits assumed): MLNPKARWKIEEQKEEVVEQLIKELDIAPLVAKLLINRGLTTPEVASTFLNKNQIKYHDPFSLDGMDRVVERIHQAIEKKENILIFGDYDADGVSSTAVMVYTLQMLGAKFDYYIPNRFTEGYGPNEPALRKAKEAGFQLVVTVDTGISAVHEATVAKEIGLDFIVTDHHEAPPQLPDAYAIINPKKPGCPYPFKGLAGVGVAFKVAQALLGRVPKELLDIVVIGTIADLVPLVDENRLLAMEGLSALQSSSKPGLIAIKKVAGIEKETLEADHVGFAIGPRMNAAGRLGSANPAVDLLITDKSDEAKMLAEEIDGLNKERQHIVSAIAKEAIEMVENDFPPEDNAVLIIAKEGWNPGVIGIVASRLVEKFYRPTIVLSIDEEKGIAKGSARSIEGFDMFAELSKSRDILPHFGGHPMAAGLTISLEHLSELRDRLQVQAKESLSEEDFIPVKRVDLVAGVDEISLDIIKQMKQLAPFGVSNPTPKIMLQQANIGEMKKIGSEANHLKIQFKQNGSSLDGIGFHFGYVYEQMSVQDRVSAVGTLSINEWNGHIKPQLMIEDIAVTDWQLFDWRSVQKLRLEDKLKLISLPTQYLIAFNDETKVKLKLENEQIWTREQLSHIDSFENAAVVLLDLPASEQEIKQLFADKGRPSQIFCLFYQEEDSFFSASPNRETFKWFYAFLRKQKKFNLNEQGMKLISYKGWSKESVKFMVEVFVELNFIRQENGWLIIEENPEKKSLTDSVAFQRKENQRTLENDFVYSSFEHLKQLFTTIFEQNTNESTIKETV
Test: EMSA
Conditions: Ca2+ replacing Mn2+, bound most strongly among the substrates; 5'-OH

## TCCGATAGCCAGATATCTTGACA [ssDNA oligonucleotide (DD295)]
  binding result: binds
